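GFP-tagged normal-ribosome E. coli mixed with an RFP-tagged h34 humanized strain, with green signal taken as growth after 24 hours.
The value is the change in activity at the highest dose tested; more negative means stronger inhibition.
Active requires GFP to fall at least twice as much as RFP with growth loss below a set limit; inconclusive means no clear call; everything else is inactive.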

These entries are mostly ones the record files as inconclusive; other results of the assay are not listed here.

With Clc1ccc(-c2nc(NCCCN3CCOCC3)c3ccccc3n2)cc1 [at 50 µM (top of the series)] the assay gave activity change 9.107 (inconclusive).
With C[C@@H]1CN([C@@H](C)CO)C(=O)c2cc(NC(=O)Nc3cccc4ccccc34)ccc2O[C@@H](C)CCCCO[C@H]1CN(C)C(=O)CCCN(C)C [at 50 µM (top of the series)] the assay gave activity change 7.011 (inconclusive).
With CCn1ccnc1CN1CCCC(C(=O)c2ccc3cc(OC)ccc3c2)C1 (centres unmarked) [at 50 µM (top of the series)] the assay gave activity change -0.584 (inconclusive).
With CC[n+]1c(C)cc2c(sc3ccccc32)c1C [at 50 µM (top of the series)] the assay gave activity change 11.64 (inactive).
With NS(=O)(=O)c1ccc(NC(=O)c2cc(Cl)sc2Cl)cc1 [at 50 µM (top of the series)] the assay gave activity change 18.13 (inconclusive).
With Cc1c(C(=O)OCC(=O)N(C)c2ccccc2)oc2ccccc12 [at 50 µM (top of the series)] the assay gave activity change -26.96 (inconclusive).
With O=C(CSCc1c(Cl)cccc1Cl)NCc1ccccn1 [at 50 µM (top of the series)] the assay gave activity change -11.59 (inactive).
With COc1ccc(S(=O)(=O)N2CCOc3ccccc32)cc1 [at 50 µM (top of the series)] the assay gave activity change -1.161 (inactive).
With C=CCSc1cc(C)nc2c(-c3ccccc3)c(C)nn12 [at 50 µM (top of the series)] the assay gave activity change -7.012 (inconclusive).
With CCN(CC)CC(=O)Nc1sc2c(c1C(=O)c1ccccc1OC)CCC2 [at 50 µM (top of the series)] the assay gave activity change -6.092 (inactive).
With O=C(COC(=O)CCC(=O)c1ccc(F)cc1)NCCc1ccccc1 [at 50 µM (top of the series)] the assay gave activity change -17.54 (inconclusive).
With CS(=O)(=O)Nc1ccccc1C(=O)NCCSc1ccccc1 [at 50 µM (top of the series)] the assay gave activity change 0.07 (inactive).
With O=C(CN1CCN(c2ccc(O)cc2)CC1)Nc1cc(S(=O)(=O)N2CCCC2)ccc1Cl [at 50 µM (top of the series)] the assay gave activity change -13.47 (inconclusive).
With CCc1nnc(NS(=O)(=O)c2ccc(NC(=O)c3cccc(Cl)c3)cc2)s1 [at 50 µM (top of the series)] the assay gave activity change -34.25 (inconclusive).
With Cc1ccc(OCCn2c(=S)[nH]c3c(N)ncnc32)cc1 [at 50 µM (top of the series)] the assay gave activity change -12.11 (inconclusive).
With O=C(O)c1cc(-c2cccs2)nn1-c1cccc(Cl)c1 [at 50 µM (top of the series)] the assay gave activity change -13.47 (inconclusive).
With C/C=C/c1ccc2c(c1)[C@@H]1[C@@H](CCN1S(=O)(=O)c1ccccc1OC)[C@H](CO)N2C [at 50 µM (top of the series)] the assay gave activity change -11.08 (inconclusive).
With Cc1cc2nc(-c3ccc4c(c3)CCC4)ccn2n1 [at 50 µM (top of the series)] the assay gave activity change 2.741 (inconclusive).
With O=C(CSCc1cnn(-c2ccccc2)c1-n1cccc1)NCc1cccnc1 [at 50 µM (top of the series)] the assay gave activity change 12.7 (inactive).
With CCN(CC)S(=O)(=O)c1cccc(NC(=O)CNc2cccc(S(=O)(=O)N3CCCC3)c2)c1 [at 50 µM (top of the series)] the assay gave activity change -11.74 (inconclusive).
With Cc1cccc(N2CCN(C(=O)CNC(=O)c3cccc([N+](=O)[O-])c3)CC2)c1C [at 50 µM (top of the series)] the assay gave activity change -0.477 (inconclusive).
With CCOC(=O)c1c(C)[nH]c(C)c1S(=O)(=O)NCCN1CCN(c2ccccc2F)CC1 [at 50 µM (top of the series)] the assay gave activity change 7.056 (inactive).
With CC(C)OC(=O)C[N+](C)(C)CCN1C(=O)C2C(c3ccccc3)C=CC(c3ccccc3)C2C1=O (centres unmarked) [at 50 µM (top of the series)] the assay gave activity change 9.292 (inconclusive).
With O=C(NCc1ccc2c(c1)OCO2)C1CCC(=O)N1C1CCCCC1 (centres unmarked) [at 50 µM (top of the series)] the assay gave activity change 48.03 (inconclusive).
With O=C(Nc1ccc(-c2nnc3n2CCCCC3)cc1)c1cc2ccccc2o1 [at 50 µM (top of the series)] the assay gave activity change 13.35 (inconclusive).
With CCCC[n+]1ccn(-c2nc3ccccc3nc2[N-]S(=O)(=O)c2cccs2)c1 [at 50 µM (top of the series)] the assay gave activity change 24.86 (inconclusive).
With COc1cc(SC)ccc1C(=O)N(Cc1ccccc1)c1ccccn1 [at 50 µM (top of the series)] the assay gave activity change 9.576 (inconclusive).
With CN(C)S(=O)(=O)c1cccc(C(=O)OCC(=O)c2ccc3c(c2)NC(=O)CO3)c1 [at 50 µM (top of the series)] the assay gave activity change -0.117 (inactive).
With COc1ccccc1-n1c(Cc2ccccc2)nc2ccccc2c1=O [at 50 µM (top of the series)] the assay gave activity change -24.17 (inconclusive).
With C=CCNc1ccc2c(c1)OC[C@H](CC(C)C)NS2(=O)=O [at 50 µM (top of the series)] the assay gave activity change 18.63 (inconclusive).

Once more, the final 3:

CN(C)S(=O)(=O)c1cccc(C(=O)OCC(=O)c2ccc3c(c2)NC(=O)CO3)c1 [at 50 µM (top of the series)] gave activity change -0.117 (inactive).
COc1ccccc1-n1c(Cc2ccccc2)nc2ccccc2c1=O [at 50 µM (top of the series)] gave activity change -24.17 (inconclusive).
C=CCNc1ccc2c(c1)OC[C@H](CC(C)C)NS2(=O)=O [at 50 µM (top of the series)] gave activity change 18.63 (inconclusive).

Data taken from PubChem BioAssay AID977624, deposited by Broad Institute (2014).